Data from publication PMC8608904.
No constants are given. Whether binding was seen depends on the method and setting. In cells and extracts the contact can be indirect. Some entries that bind do so weakly or less than the wild type. One block for each molecule: values may come before it.

Chains of the proteins cited; added tags and fusions are not shown.
UniProt Q91YH6: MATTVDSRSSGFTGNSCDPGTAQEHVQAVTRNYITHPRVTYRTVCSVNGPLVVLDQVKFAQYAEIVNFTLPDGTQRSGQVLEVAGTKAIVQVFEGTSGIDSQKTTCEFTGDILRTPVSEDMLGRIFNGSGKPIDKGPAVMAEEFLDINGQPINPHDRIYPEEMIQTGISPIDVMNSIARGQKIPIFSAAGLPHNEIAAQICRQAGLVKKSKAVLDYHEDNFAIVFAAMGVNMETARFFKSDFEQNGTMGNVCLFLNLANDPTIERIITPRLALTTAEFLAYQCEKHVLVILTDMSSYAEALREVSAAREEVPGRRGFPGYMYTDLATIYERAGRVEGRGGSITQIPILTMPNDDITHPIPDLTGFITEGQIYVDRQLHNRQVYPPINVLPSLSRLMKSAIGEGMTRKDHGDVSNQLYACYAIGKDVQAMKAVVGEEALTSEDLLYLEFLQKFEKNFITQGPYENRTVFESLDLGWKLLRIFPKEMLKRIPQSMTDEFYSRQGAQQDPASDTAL

What was measured:
[1] = target: B1 subunit of V-ATPase (mouse (endogenous in kidney)) (UniProt Q91YH6); assay: co-IP; anti-B1 or anti-B2 antibodies with mouse kidney lysate mixed with lysate of HEK293T cells overexpressing Tldc1 or Tldc2, protein A agarose; western blot with anti-Tldc1 or anti-HA
[2] = target: B2 subunit of V-ATPase (mouse (endogenous in kidney)) (UniProt P62814); assay: as above
[3] = target: B1 subunit of V-ATPase (mouse (endogenous in kidney)) (UniProt Q91YH6); assay: co-IP; anti-B1 or anti-B2 antibodies with 0.5 mg mouse kidney lysate, protein A agarose; western blot with anti-Tbc1d24, anti-B1 and anti-B2
[4] = target: T1, B2 subunit of V-ATPase (mouse (endogenous in kidney)), P62814; assay: as above; conditions: remark: other sources report otherwise
T1 chain: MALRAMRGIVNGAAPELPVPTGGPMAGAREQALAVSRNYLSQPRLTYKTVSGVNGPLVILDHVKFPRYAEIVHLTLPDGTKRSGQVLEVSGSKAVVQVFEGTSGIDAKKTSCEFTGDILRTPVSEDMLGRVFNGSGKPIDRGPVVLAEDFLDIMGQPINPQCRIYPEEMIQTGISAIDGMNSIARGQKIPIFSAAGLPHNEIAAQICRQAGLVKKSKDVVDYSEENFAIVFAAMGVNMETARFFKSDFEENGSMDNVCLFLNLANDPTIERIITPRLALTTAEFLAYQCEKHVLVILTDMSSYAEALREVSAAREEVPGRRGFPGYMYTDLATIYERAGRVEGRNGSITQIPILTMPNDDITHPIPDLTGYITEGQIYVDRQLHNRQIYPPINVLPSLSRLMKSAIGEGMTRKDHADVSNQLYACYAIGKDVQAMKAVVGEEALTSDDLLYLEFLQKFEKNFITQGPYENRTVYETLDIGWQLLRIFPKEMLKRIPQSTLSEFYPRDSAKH

binding [1]: binds | binding [2]: binds
Molecule: HA-tagged full-length mouse Tldc1, overexpressed in HEK293T cells (from UniProt Q8K0P3-1 1-455)

binding [3]: binds
B1: endogenous kidney Tbc1d24 (protein, UniProt Q3UUG6 1-561)
chain: MDPPGYNCFVDKDKMDASIQDLGPKELNCTELQELKQLARQGYWAQSHTLRGKVYQRLIRDIPCRTVTPDASVYSDIVGKIVGKHSSSSLPLPEFVDNTQVPTYCLNTRGEGAVRKILLCIANQFPDISFCPALPAVVALLLHYSIDEAECFEKACRILSCNDPTKKLIDQSFLAFESSCMTFGDLVNKYCQAAHKLMVAVSEDVLQVYSDWQRWLFGELPLNYFARVFDVFLVEGYKVLYRVALAILKFFHKVRAGQPLESDNVKQDIRMFVKDIAKTVSPEKLLEKAFAIRLFSRKEIQLLQMANEKALRQKGITVKQKSVSLSKRQFVHLAVHAENFHSEIVSVKEMRDIWSWIPERFALCQPLLLFSSLQHGYSLSRFYFQCEGHEPTLLLIKTTQKEVCGAYLSTDWSERTKFGGKLGFFGTGECFVFRLQPEVQRYEWVVIKHPELTKATSLKSSEAAGSSSLISHCSSDPADRLSPFLAARHFNLPSKTESMFMAGGNDCLIIGGGGGQALYVDGDLNRGRTGHCDTFNNQPLCSENFLIAAVEAWGFQDPDTE

binding [4]: no binding
B2: endogenous kidney Tbc1d24, Q3UUG6 1-561 (protein)
chain: MDPPGYNCFVDKDKMDASIQDLGPKELNCTELQELKQLARQGYWAQSHTLRGKVYQRLIRDIPCRTVTPDASVYSDIVGKIVGKHSSSSLPLPEFVDNTQVPTYCLNTRGEGAVRKILLCIANQFPDISFCPALPAVVALLLHYSIDEAECFEKACRILSCNDPTKKLIDQSFLAFESSCMTFGDLVNKYCQAAHKLMVAVSEDVLQVYSDWQRWLFGELPLNYFARVFDVFLVEGYKVLYRVALAILKFFHKVRAGQPLESDNVKQDIRMFVKDIAKTVSPEKLLEKAFAIRLFSRKEIQLLQMANEKALRQKGITVKQKSVSLSKRQFVHLAVHAENFHSEIVSVKEMRDIWSWIPERFALCQPLLLFSSLQHGYSLSRFYFQCEGHEPTLLLIKTTQKEVCGAYLSTDWSERTKFGGKLGFFGTGECFVFRLQPEVQRYEWVVIKHPELTKATSLKSSEAAGSSSLISHCSSDPADRLSPFLAARHFNLPSKTESMFMAGGNDCLIIGGGGGQALYVDGDLNRGRTGHCDTFNNQPLCSENFLIAAVEAWGFQDPDTE
